Columns and labels:
[1] = system: L. donovani promastigotes (MHOM/SD/62/1S); experiment: Inhibitory assay against L. donovani promastigotes (resazurin colorimetric assay); type: cell-based, Leishmania donovani; conditions: CC50/IC50; isolated compounds
Procedure: The cryopreserved promastigote form of L. donovani (1S (MHOM/SD/62/1S) was obtained from Bei Resources (https://www.beiresources.org/) and is routinely cultured at the Antimicrobial and Biocontrol Agents Unit, University of Yaoundé I, in Medium 199 (Sigma, Darmstadt, Germany) supplemented with 10% Heat-Inactivated fetal Bovine Serum (HIFBS) (Sigma, Darmstadt, Germany) and 100 IU/mL penicillin and 100 μg/mL streptomycin. The culture was maintained in 75 Cm^2 cell culture flask at 28 °C and checked for growth daily and sub-cultured everyday 72 h.
The stock solutions were prepared by dissolving each sample in 100% dimethyl sulfoxide (DMSO) and subsequently diluted serially in non-supplemented culture medium. […] The viability rate of promastigotes positively correlated with the amount of pink resorufin that was produced through the reduction of blue resazurin by the dehydrogenase enzymes in the inner mitochondrial membrane of the living parasites. […] After an additional incubation for 44 h, plates were then read on a Magelan Infinite M200 fluorescence multi-well plate reader (Tecan, Männedorf, Switzerland) at an excitation and emission wave lengths of 530 and 590 nm respectively.

L. donovani amastigotes = experiment: Inhibitory assay against intracellular L. donovani amastigotes in Raw 264.7 macrophages (resazurin); type: cell-based, Leishmania donovani; conditions: CC50/IC50; isolated compounds
Procedure: The effect of plant isolates against the intracellular amastigote form of L. donovani was evaluated essentially as described by Jain et al. with some modifications. Briefly, macrophage Raw 264.7 cells ([…]) were seeded in 96 well plates and incubated for 6 h at 37 °C under 5% CO2 for adhesion of the cells. Afterwards, the non-adherent cells were washed-out with sterile PBS. The adherent Raw 264.7 cells were infected with metacyclic promastigotes (4 × 10^5 cells) at an infection ratio of 1:10 macrophage: parasites and incubated for 24 h at 37 °C under 5% CO2 in order to allow infection of macrophages by metacyclic promastigotes. Thereafter, the overlying medium was removed, and the monolayer cells with internalized amastigotes were carefully washed four times with PBS to remove free parasites. […] Resazurin reagent (250 μg/mL) was thereafter added in each well and the plates were incubated for 24 h followed by fluorescence recording at λexcitation = 530 nm and λemission = 590 nm using a Tecan Infinite M200 microplate reader (Tecan). Inhibition percentages were calculated using Microsoft Excel Software and median inhibitory concentration (IC50) obtained from dose-response curves using GraphPad Prism 5.0. […]

OC1CC(O)C(O)C(O)C1O (centres unmarked) [1-deoxyinositol (7), 1-deoxyinositol]
SI (Promastigotes) [1]: > 5.04 | SI (Amastigotes) (L. donovani amastigotes): > 10.15

— article PMC8011081, “Bio-guided isolation of anti-leishmanial natural products from Diospyros gracilescens L. (Ebenaceae)” (BMC Complementary Medicine and Therapies, 2021)
